Reference: PubChem BioAssay AID1224830 (NIAID, 2016)

Test: 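Host factors that control LPS-induced TNF expression in human macrophages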 (primary screen)
Cells: human THP-1 monocytic leukaemia cells, TNF dual-luciferase reporter clone, PMA-differentiated to macrophage-like cells
Reagent: siRNA pool against human genes, 50 nM
Timing: LPS for 4 h, given about 3 days after siRNA transfection
Challenge: bacterial LPS (TLR4 ligand), 10 ng/ml
Measured: 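Ratio of firefly to renilla light, scaled to the plate median and expressed as a robust z-score per replicate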
Direction: TNF reporter robust z-score: higher = stronger TNF reporter response to LPS
Rule for the call: 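Each well counts as active if its z-score is over 2.8 or under -1.5; controls are left without a call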
The deposit covers about 18,000 reagents; shown is a random part of them. In the full data, about 2,900 (16%) got an active call. 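Calls are made per well; low scores hint the gene aids the LPS response, high scores that it dampens it.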 Entries without a mark were called inactive. Repeated entries: four replicate wells of each siRNA pool.

For EDDM3B (epididymal protein 3B), the values are TNF reporter robust z-score 0.03. Silencing of EDDM3B (epididymal protein 3B) resulted in: TNF reporter robust z-score 0.19. Against EDDM3B (epididymal protein 3B) the deposit lists TNF reporter robust z-score -1.31. EDDM3B (epididymal protein 3B) gave TNF reporter robust z-score -0.52. Silencing of ZNF664 (zinc finger protein 664) gave: TNF reporter robust z-score 0.25. With knock-down of ZNF664 (zinc finger protein 664), the screen gave TNF reporter robust z-score 1.65.

With knock-down of ZNF664 (zinc finger protein 664), the screen gave TNF reporter robust z-score 0.53. ZNF664 (zinc finger protein 664) scored TNF reporter robust z-score 1.04. Depletion of SLC27A6 came out at: TNF reporter robust z-score 0.61. With knock-down of SLC27A6, the record shows TNF reporter robust z-score 0.04. SLC27A6 showed TNF reporter robust z-score 0.69. Knock-down of SLC27A6 gave: TNF reporter robust z-score 0.72.

Depletion of LEF1 (lymphoid enhancer binding factor 1) came out at: TNF reporter robust z-score 0.36. With knock-down of LEF1 (lymphoid enhancer binding factor 1), the screen gave TNF reporter robust z-score 1.1. After knock-down of LEF1 (lymphoid enhancer binding factor 1), the record shows TNF reporter robust z-score -0.28. Depletion of LEF1 (lymphoid enhancer binding factor 1) came out at: TNF reporter robust z-score -0.36. Against MAML2 (mastermind like transcriptional coactivator 2), the values are TNF reporter robust z-score -0.85. Knock-down of MAML2 (mastermind like transcriptional coactivator 2) gave: TNF reporter robust z-score -0.46.

MAML2 (mastermind like transcriptional coactivator 2) gave TNF reporter robust z-score -0.91. Against MAML2 (mastermind like transcriptional coactivator 2), the entry reads TNF reporter robust z-score -1.3. After knock-down of ZNF740 (zinc finger protein 740), the record shows TNF reporter robust z-score 0.48. ZNF740 (zinc finger protein 740) gave TNF reporter robust z-score 0.35. After knock-down of ZNF740 (zinc finger protein 740), the record shows TNF reporter robust z-score 0.54. Against ZNF740 (zinc finger protein 740) the deposit lists TNF reporter robust z-score 1.09.

With knock-down of CALHM6 (calcium homeostasis modulator family member 6), the screen gave TNF reporter robust z-score 0.53. Silencing of CALHM6 (calcium homeostasis modulator family member 6) gave: TNF reporter robust z-score 1.25. CALHM6 (calcium homeostasis modulator family member 6) showed TNF reporter robust z-score 0.18. After knock-down of CALHM6 (calcium homeostasis modulator family member 6) the results were TNF reporter robust z-score 1.97. Against ENC1 (ectodermal-neural cortex 1), the entry reads TNF reporter robust z-score 0.05. Knock-down of ENC1 (ectodermal-neural cortex 1) came out at: TNF reporter robust z-score 0.91.

With knock-down of ENC1 (ectodermal-neural cortex 1), the screen gave TNF reporter robust z-score -0.48. ENC1 (ectodermal-neural cortex 1) gave TNF reporter robust z-score 1.31. Depletion of CD163L1 (CD163 molecule like 1) resulted in: TNF reporter robust z-score 2.58. CD163L1 (CD163 molecule like 1) scored TNF reporter robust z-score 2.41. After knock-down of CD163L1 (CD163 molecule like 1), the record shows TNF reporter robust z-score 2.14. After knock-down of CD163L1 (CD163 molecule like 1) the results were TNF reporter robust z-score 1.98.

Knock-down of KIAA0513 came out at: TNF reporter robust z-score -0.31. KIAA0513 scored TNF reporter robust z-score -0.5. Knock-down of KIAA0513 came out at: TNF reporter robust z-score -0.82. After knock-down of NABP1 (nucleic acid binding protein 1) the results were TNF reporter robust z-score 0. Silencing of NABP1 (nucleic acid binding protein 1) resulted in: TNF reporter robust z-score -0.59. NABP1 (nucleic acid binding protein 1) showed TNF reporter robust z-score -0.52.

Knock-down of NABP1 (nucleic acid binding protein 1) resulted in: TNF reporter robust z-score -0.55. After knock-down of CBLIF (cobalamin binding intrinsic factor), the screen gave TNF reporter robust z-score 0.8. CBLIF (cobalamin binding intrinsic factor) scored TNF reporter robust z-score 0.12. With knock-down of CBLIF (cobalamin binding intrinsic factor) the results were TNF reporter robust z-score 0.51. Silencing of CBLIF (cobalamin binding intrinsic factor) came out at: TNF reporter robust z-score 1.78.
